No constants are given. Whether binding was seen depends on the method and setting. Binding seen in cells or lysates may run through a third protein. Some results given as binding are weak or reduced against the parent protein; the word gives no strength. Tags and fused reporters may be left off the sequences shown.
Molecular target: T1, Tudor staphylococcal nuclease 2 tagged with GFP (TSN2-GFP) (Arabidopsis thaliana) (UniProt Q9FLT0)
T1 sequence: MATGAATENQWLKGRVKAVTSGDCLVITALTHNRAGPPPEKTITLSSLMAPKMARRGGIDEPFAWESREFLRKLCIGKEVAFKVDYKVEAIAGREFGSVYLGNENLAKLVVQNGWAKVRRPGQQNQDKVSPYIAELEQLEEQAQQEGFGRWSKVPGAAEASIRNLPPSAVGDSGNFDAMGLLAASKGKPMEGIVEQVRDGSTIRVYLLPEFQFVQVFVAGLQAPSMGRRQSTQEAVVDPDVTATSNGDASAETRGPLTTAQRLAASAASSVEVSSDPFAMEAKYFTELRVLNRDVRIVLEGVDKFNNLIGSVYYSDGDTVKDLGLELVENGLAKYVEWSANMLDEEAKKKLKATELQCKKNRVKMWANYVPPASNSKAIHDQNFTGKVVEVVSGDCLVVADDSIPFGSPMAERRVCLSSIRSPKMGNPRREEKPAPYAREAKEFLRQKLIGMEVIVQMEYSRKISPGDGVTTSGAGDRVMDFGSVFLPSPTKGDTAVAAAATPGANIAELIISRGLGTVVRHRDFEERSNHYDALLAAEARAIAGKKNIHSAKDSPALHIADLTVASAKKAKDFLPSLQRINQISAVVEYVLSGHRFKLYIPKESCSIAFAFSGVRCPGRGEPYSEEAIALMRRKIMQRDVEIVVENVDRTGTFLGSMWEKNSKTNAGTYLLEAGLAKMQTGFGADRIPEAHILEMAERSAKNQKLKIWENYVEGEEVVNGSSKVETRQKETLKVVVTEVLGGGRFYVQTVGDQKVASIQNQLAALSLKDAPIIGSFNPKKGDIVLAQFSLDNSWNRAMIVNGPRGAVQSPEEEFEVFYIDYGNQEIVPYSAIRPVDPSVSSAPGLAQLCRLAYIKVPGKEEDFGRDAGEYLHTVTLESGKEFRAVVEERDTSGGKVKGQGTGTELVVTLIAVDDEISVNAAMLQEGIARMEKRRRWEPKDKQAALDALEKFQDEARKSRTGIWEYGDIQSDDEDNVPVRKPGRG
Assay: co-IP; protein extracts from leaves of 3-wk-old transgenic Arabidopsis co-expressing GFP-TCTP or TSN2-GFP with MC1-RFP; plants kept in control (NS) conditions or heat stressed (HS, 39 °C for 40 min); input and IP fractions immunoblotted with α-GFP or α-RFP

binding: binds
B1: Arabidopsis metacaspase MC1 tagged with RFP (MC1-RFP) (protein, UniProt Q7XJE6 1-367)
chain: MYPPPPSSIYAPPMLVNCSGCRTPLQLPSGARSIRCALCQAVTHIADPRTAPPPQPSSAPSPPPQIHAPPGQLPHPHGRKRAVICGISYRFSRHELKGCINDAKCMRHLLINKFKFSPDSILMLTEEETDPYRIPTKQNMRMALYWLVQGCTAGDSLVFHYSGHGSRQRNYNGDEVDGYDETLCPLDFETQGMIVDDEINATIVRPLPHGVKLHSIIDACHSGTVLDLPFLCRMNRAGQYVWEDHRPRSGLWKGTAGGEAISISGCDDDQTSADTSALSKITSTGAMTFCFIQAIERSAQGTTYGSLLNSMRTTIRNTGNDGGGSGGVVTTVLSMLLTGGSAIGGLRQEPQLTACQTFDVYAKPFTL

Source: paper PMC10473220
